Values from PubChem BioAssay AID743121 (NCATS, 2013).
Aim: 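Genes whose silencing strengthens cell killing by camptothecin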 (primary screen). System: MDA-MB-231 cells, a human breast cancer line. Reagent: single siRNA against human genes, 20 nM siRNA (0.8 pmol per well). Duration: 120 h (drug added 48 h after transfection, read 72 h later). Treatment: camptothecin 20 nM (about EC30) for 72 h; vehicle 0.1% DMSO in parallel plates. Measurement: 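Cell viability by ATP luminescence (CellTiter-Glo) as % of non-targeting siRNA wells, and the log2 ratio of viability without drug over viability with camptothecin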. Scale: log2 vehicle/camptothecin viability: higher = stronger sensitisation to camptothecin. Active means: 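Active genes have an RSA gene-level p-value below 0.001, computed from the ratios of their separate siRNAs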.
This is a random part of about 26,000 reagents. 167 of them (0.63%) were called active. 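Calls are per gene from RSA p-values that are not deposited; an individual active-marked siRNA can sensitise only weakly.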 The numbers tell different reagents against one gene apart. Further read-outs or replicates are left out here. No sequences are given here.

TIMM8A (translocase of inner mitochondrial membrane 8A) #1: log2 vehicle/camptothecin viability = -0.318; outcome = inactive
TIMM8A (translocase of inner mitochondrial membrane 8A) #2: log2 vehicle/camptothecin viability = -0.323; outcome = inactive
TIMM8A (translocase of inner mitochondrial membrane 8A) #3: log2 vehicle/camptothecin viability = -0.206; outcome = inactive
TIMM8A (translocase of inner mitochondrial membrane 8A) #4: log2 vehicle/camptothecin viability = -0.216; outcome = inactive
CLEC11A (C-type lectin domain containing 11A) #1: log2 vehicle/camptothecin viability = -0.578; outcome = inactive
CLEC11A (C-type lectin domain containing 11A) #2: log2 vehicle/camptothecin viability = -0.265; outcome = inactive
CLEC11A (C-type lectin domain containing 11A) #3: log2 vehicle/camptothecin viability = -0.16; outcome = inactive
CLEC11A (C-type lectin domain containing 11A) #4: log2 vehicle/camptothecin viability = -0.0828; outcome = inactive
NFATC3 (nuclear factor of activated T cells 3) #1: log2 vehicle/camptothecin viability = 0.144; outcome = inactive
NFATC3 (nuclear factor of activated T cells 3) #2: log2 vehicle/camptothecin viability = -0.167; outcome = inactive
NFATC3 (nuclear factor of activated T cells 3) #3: log2 vehicle/camptothecin viability = -0.14; outcome = inactive
NFATC3 (nuclear factor of activated T cells 3) #4: log2 vehicle/camptothecin viability = -0.385; outcome = inactive
FOSL1 (FOS like 1, AP-1 transcription factor subunit) #1: log2 vehicle/camptothecin viability = -0.0691; outcome = inactive
FOSL1 (FOS like 1, AP-1 transcription factor subunit) #2: log2 vehicle/camptothecin viability = -0.311; outcome = inactive
FOSL1 (FOS like 1, AP-1 transcription factor subunit) #3: log2 vehicle/camptothecin viability = -0.117; outcome = inactive
TESK1 (testis associated actin remodelling kinase 1) #1: log2 vehicle/camptothecin viability = -0.405; outcome = inactive
TESK1 (testis associated actin remodelling kinase 1) #2: log2 vehicle/camptothecin viability = -0.249; outcome = inactive
TESK1 (testis associated actin remodelling kinase 1) #3: log2 vehicle/camptothecin viability = -0.417; outcome = inactive
TESK1 (testis associated actin remodelling kinase 1) #4: log2 vehicle/camptothecin viability = -0.283; outcome = inactive
TSTD2 (thiosulfate sulfurtransferase like domain containing 2) #1: log2 vehicle/camptothecin viability = -0.0175; outcome = inactive
TSTD2 (thiosulfate sulfurtransferase like domain containing 2) #2: log2 vehicle/camptothecin viability = -0.387; outcome = inactive
TSTD2 (thiosulfate sulfurtransferase like domain containing 2) #3: log2 vehicle/camptothecin viability = -0.0861; outcome = inactive
TSTD2 (thiosulfate sulfurtransferase like domain containing 2) #4: log2 vehicle/camptothecin viability = -0.0169; outcome = inactive
MTNR1A (melatonin receptor 1A) #1: log2 vehicle/camptothecin viability = 0.86; outcome = inactive
MTNR1A (melatonin receptor 1A) #2: log2 vehicle/camptothecin viability = -0.347; outcome = inactive
MTNR1A (melatonin receptor 1A) #3: log2 vehicle/camptothecin viability = -0.376; outcome = inactive
MTNR1A (melatonin receptor 1A) #4: log2 vehicle/camptothecin viability = 0.122; outcome = inactive
TAAR5 (trace amine associated receptor 5) #1: log2 vehicle/camptothecin viability = -0.0411; outcome = inactive
TAAR5 (trace amine associated receptor 5) #2: log2 vehicle/camptothecin viability = -0.49; outcome = inactive
TAAR5 (trace amine associated receptor 5) #3: log2 vehicle/camptothecin viability = -0.544; outcome = inactive
TAAR5 (trace amine associated receptor 5) #4: log2 vehicle/camptothecin viability = -0.187; outcome = inactive
KLC4 (kinesin light chain 4) #1: log2 vehicle/camptothecin viability = -0.183; outcome = inactive
KLC4 (kinesin light chain 4) #2: log2 vehicle/camptothecin viability = 1.04; outcome = inactive
KLC4 (kinesin light chain 4) #3: log2 vehicle/camptothecin viability = 0.0863; outcome = inactive
KLC4 (kinesin light chain 4) #4: log2 vehicle/camptothecin viability = 0.0139; outcome = inactive

5 consecutive entries already listed:
FOSL1 (FOS like 1, AP-1 transcription factor subunit) #2: log2 vehicle/camptothecin viability = -0.311; outcome = inactive
FOSL1 (FOS like 1, AP-1 transcription factor subunit) #3: log2 vehicle/camptothecin viability = -0.117; outcome = inactive
TESK1 (testis associated actin remodelling kinase 1) #1: log2 vehicle/camptothecin viability = -0.405; outcome = inactive
TESK1 (testis associated actin remodelling kinase 1) #2: log2 vehicle/camptothecin viability = -0.249; outcome = inactive
TESK1 (testis associated actin remodelling kinase 1) #3: log2 vehicle/camptothecin viability = -0.417; outcome = inactive
